Construct, isoform or probe ends are uncertain for at least one entry. A negative result means that nothing was seen under these conditions. At least one verdict was read from the data and is not stated in words by the source. Protein sequences can lack the tags named with them.
molecular target: T1, HY5 (His-HY5) (Solanum lycopersicum (tomato)) (UniProt Q9SM50); assay: EMSA; conditions: Light Shift Chemiluminescent EMSA kit (Thermo 20148) per manufacturer; pH and temperature not stated; recombinant protein; protein details: His (pET-32a); label: 3' biotin
T1 sequence (looked up, limits assumed): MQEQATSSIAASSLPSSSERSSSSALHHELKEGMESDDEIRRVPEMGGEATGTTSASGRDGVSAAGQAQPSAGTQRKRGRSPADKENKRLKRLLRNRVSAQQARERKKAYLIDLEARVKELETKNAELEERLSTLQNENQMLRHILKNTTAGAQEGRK

Row | Sequence | binding result
1 | GATTTGCATAAGATTCTCAAAAACAAAAAAATCCACGAGGAAAAAC (double strand) [DET2-BC mut] | no binding
2 | GATTTGCATAAGATTCTCGTCAACACACGTGTCCACGAGGAAAAAC (double strand) [DET2-BC WT] | binds
3 | TTATAGTAAAATTAACTGTAAAACTTTAACTACATGAATAACT (double strand) [DWF-A mut] | no binding
4 | TTATAGTAAAATTAACTGTGTCACTTTAACTACATGAATAACT (double strand) [DWF-A WT] | binds
5 | TTATATTACATGATTTTTTTAAAAAATACACCAAAGTAGTCATGAAA (double strand) [BRC1-B mut] | no binding
6 | TTATCTAGGTTAGACAAAAGAAAAAATAGTTTCAAACGCAGTAGCC (double strand) [BRC1-C mut] | no binding
7 | TTATCTAGGTTAGACAAAAGCACGTGTAGTTTCAAACGCAGTAGCC (double strand) [BRC1-C WT] | binds
8 | TTCACTTCCAACAATACCGCAAAAAACCACTACCTGCTTCCTTCCT (double strand) [BRC1-A mut] | no binding
9 | TTCACTTCCAACAATACCGCTACGTACCACTACCTGCTTCCTTCCT (double strand) [BRC1-A WT] | binds
10 | TTGATAAAATAATACAAAAAATAATTTTGTTCAACGAAAGTTAAA (double strand) [DET2-A mut] | no binding
11 | TTGATAAAATAATACAAGTCATAATTTTGTTCAACGAAAGTTAAA (double strand) [DET2-A WT] | binds
